From ChEMBL document CHEMBL4513141, “CO-ADD screening of NIH (USA) - Clinical Collection” (2021) come the findings set out here.

The list shows a part of the results. Potency and affinity values are given separately.

Broadly, the Inhibition is the percentage by which the read-out fell short of the control. A higher Inhibition goes with a strong effect.

The subject of this assay is Acinetobacter baumannii. The note with it: Concentration 20 uM; ASSAY_TEST Inhibition of Bacterial Growth; detection method Absorption (OD600); MEDIA CAMHB; plate type 384well; NBS; CORNING #3640; time 18 hr.
For the compound `CC(=O)O[C@@]12CO[C@@H]1C[C@H](O)[C@@]1(C)C(=O)[C@H](O)C3=C(C)[C@@H](OC(=O)[C@H](O)[C@@H](NC(=O)OC(C)(C)C)c4ccccc4)C[C@](O)([C@@H](OC(=O)c4ccccc4)[C@H]21)C3(C)C`, the Inhibition came to 21.28%.

In turn, `COc1cc(C(=O)NS(=O)(=O)c2ccccc2C)ccc1Cc1cn(C)c2ccc(NC(=O)OC3CCCC3)cc12` [ZAFIRLUKAST] displayed an Inhibition of 20.95%.

For `C[C@H]1[C@@H](OC(=O)CCC(=O)O)O[C@@H]2O[C@@]3(C)CC[C@H]4[C@H](C)CC[C@@H]1[C@@]24OO3`, the Inhibition is reported as 5.9%.

Consider `COc1ccc(CC2c3cc(OC)c(OC)cc3CC[N+]2(C)CCC(=O)OCCCCCOC(=O)CC[N+]2(C)CCc3cc(OC)c(OC)cc3C2Cc2ccc(OC)c(OC)c2)cc1OC.O=S(=O)(O)c1ccccc1` (configuration not stated), for which the Inhibition was 12.39%.

Turning to `NS(=O)(=O)c1cc(C(=O)O)c(NCc2ccco2)cc1Cl` [FUROSEMIDE], the Inhibition was 25.01%.

For `CC1(C)O[C@@H]2C[C@H]3[C@@H]4CCC5=CC(=O)C=C[C@]5(C)[C@@]4(F)[C@@H](O)C[C@]3(C)[C@]2(C(=O)CO)O1` [TRIAMCINOLONE ACETONIDE], the Inhibition was 28.78%.

In turn, `CCC1=C[C@H]2CN(C1)Cc1c([nH]c3ccccc13)[C@@](C(=O)OC)(c1cc3c(cc1OC)N(C)[C@H]1[C@@](O)(C(=O)OC)[C@H](OC(C)=O)[C@]4(CC)C=CCN5CC[C@]31[C@@H]54)C2.O=C(O)C(O)C(O)C(=O)O.O=C(O)C(O)C(O)C(=O)O` yielded an Inhibition of 8.05%.

As to `NS(=O)(=O)c1cc2c(cc1Cl)N=CNS2(=O)=O` [CHLOROTHIAZIDE], the Inhibition came out at 23.46%.

On to `CCOC(=O)OC(C)OC1=C(C(=O)Nc2ccccn2)N(C)S(=O)(=O)c2ccccc21` (configuration not stated) [AMPIROXICAM], for which the Inhibition is 31.25%.

As for `O=C(O)c1cc(-c2ccc(F)cc2F)ccc1O` [DIFLUNISAL], the Inhibition is 12.12%.

`CCCCNC(=O)NS(=O)(=O)c1ccc(C)cc1` [TOLBUTAMIDE] displayed an Inhibition of 35.1%.

`CC(=O)Nc1ccc(CC(=O)O)cc1` [ACTARIT] registered an Inhibition of 5.01%.

Take `Cc1nc2n(c(=O)c1CCN1CCC(c3noc4cc(F)ccc34)CC1)CCCC2` [RISPERIDONE]: the Inhibition worked out at 8.1%.

`OCc1cc(C(O)CNCCCCCCOCCCCc2ccccc2)ccc1O` (configuration not stated) [SALMETEROL] had an Inhibition of 31.88%.

In turn, `CCC1=C(C)CN(C(=O)NCCc2ccc(S(=O)(=O)NC(=O)N[C@H]3CC[C@H](C)CC3)cc2)C1=O` [GLIMEPIRIDE] showed an Inhibition of 22.8%.

Compound `CCS(=O)(=O)CCn1c([N+](=O)[O-])cnc1C` [TINIDAZOLE] had an Inhibition of 20.01%.

Turning to `COc1ccc(CN2CCN(C(c3ccc(F)cc3)c3ccc(F)cc3)CC2)c(OC)c1OC.Cl.Cl`, the Inhibition worked out at 17.33%.

As to `CC(C)(S)C(N)C(=O)O` (stereo not drawn) [DL-PENICILLAMINE], the Inhibition came out at 22.2%.

`COc1cc(C(=O)NC2CCCNC2)cc(OC)c1OC` (configuration not stated) [TROXIPIDE] had an Inhibition of 20.3%.

Regarding `c1ccc2[nH]c(-c3cscn3)nc2c1` [THIABENDAZOLE], the Inhibition was 17.74%.

Turning to `CN1CCN(CCCN2c3ccccc3Sc3ccc(Cl)cc32)CC1.O=C(O)/C=C\C(=O)O.O=C(O)/C=C\C(=O)O` [PROCHLORPERAZINE MALEATE], the Inhibition is given as 25.43%.

As for `CCN(CC)C(=O)[C@]1(c2ccccc2)C[C@@H]1CN.Cl` [1R,2S-MILNACIPRAN HYDROCHLORIDE], the Inhibition was determined as 28.51%.

`CCc1cccc2c3c([nH]c12)C(CC)(CC(=O)O)OCC3` (configuration not stated) [ETODOLAC]: the Inhibition is on record as 21.05%.

Take `CC1=C(CC(=O)O)c2cc(F)ccc2/C1=C\c1ccc([S+](C)[O-])cc1` (configuration not stated): the Inhibition turned out to be 22.33%.

Compound `Cl.NC1CCN(c2cccc(Cl)n2)CC1` gave an Inhibition of 5.11%.

In turn, `CN(CCOc1ccc(CC2SC(=O)NC2=O)cc1)c1ccccn1.O=C(O)/C=C\C(=O)O` (configuration not stated) [ROSIGLITAZONE MALEATE] gave an Inhibition of 18.39%.

`Cl.O.O=C(c1ccc(F)cc1)C1CCN(CCn2c(=S)[nH]c3ccccc3c2=O)CC1`: the Inhibition is listed as 8.41%.

`COc1ccc2[nH]c([S+]([O-])Cc3ncc(C)c(OC)c3C)nc2c1` (configuration not stated) [OMEPRAZOLE]: the Inhibition amounted to 7.26%.

For `N=c1cc(N2CCCCC2)nc(N)n1O`, the Inhibition came to 20.47%.

`Cl.O=c1n(CCCN2CCN(c3cccc(Cl)c3)CC2)nc2ccccn12` [TRAZODONE HYDROCHLORIDE] registered an Inhibition of 9.41%.

`CNCCCN1c2ccccc2CCc2ccccc21.Cl` [DESIPRAMINE HYDROCHLORIDE]: the Inhibition was determined as 28.7%.

The compound `COC(=O)CCc1ccc(OCC(O)CNC(C)C)cc1.Cl` (configuration not stated) [ESMOLOL HYDROCHLORIDE] registered an Inhibition of 15.72%.

On to `CC(C)Cc1ccc(C(C)C(=O)O)cc1` (configuration not stated) [IBUPROFEN], for which the Inhibition worked out at 9.08%.

The compound `Br.Br.O=C1CC2(CCCC2)CC(=O)N1CCNCC1COc2ccccc2O1` (configuration not stated) gave an Inhibition of 31.64%.

`C[C@]12CCC(=O)C=C1CC[C@@H]1[C@@H]2[C@@H](O)C[C@@]2(C)[C@H]1CC[C@]2(O)C(=O)CO` [HYDROCORTISONE] gave an Inhibition of 3.9%.

Compound `CCN1CCC[C@H]1CNC(=O)c1c(O)c(Cl)cc(Cl)c1OC` [RACLOPRIDE] registered an Inhibition of 10.65%.

Compound `O.OC[C@H]1O[C@@H](n2cnc3c(NC4CCCC4)nc(Cl)nc32)[C@@H](O)C1O` (some centres not stated) registered an Inhibition of 14.41%.

`CSc1ccc2c(c1)N(CCC1CCCCN1C)c1ccccc1S2.Cl` (configuration not stated) [THIORIDAZINE HYDROCHLORIDE]: the Inhibition came to 9.91%.

Consider `CCCCC[C@H](O)/C=C/[C@H]1[C@H](O)CC(=O)[C@@H]1CCCCCCC(=O)O` [ALPROSTADIL], for which the Inhibition worked out at 14.8%.

The compound `CC[C@H](C)C(=O)O[C@H]1C[C@H](O)C=C2C=C[C@H](C)[C@H](CC[C@@H](O)C[C@@H](O)CC(=O)[O-])[C@H]21.[Na+]` [PRAVASTATIN SODIUM] showed an Inhibition of 25.79%.

Compound `C#C[C@]1(O)CC[C@H]2[C@@H]3CCc4cc(OC)ccc4[C@H]3CC[C@@]21C` [MESTRANOL] registered an Inhibition of 18.25%.

In the case of `COc1cc([C@@H]2c3cc4c(cc3[C@@H](O[C@@H]3O[C@@H]5CO[C@@H](C)O[C@H]5[C@H](O)[C@H]3O)[C@H]3COC(=O)[C@H]23)OCO4)cc(OC)c1O` [ETOPOSIDE], the Inhibition is reported as 14.52%.
